The values that follow come from PubChem BioAssay AID256 (DTP/NCI, 2004).

This assay relates to CD2F1 mice, L1210 leukemia ip, survival T/C. The assay can be described thus: NCI In Vivo Anticancer Drug Screen. Data for tumor model L1210 Leukemia (intraperitoneal) in CD2F1 (CDF1) mice. The following applies: higher T/C = longer survival. A digest of the protocol: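 Mice carrying a transplanted tumor received test compound or vehicle alone. The value is the measurement in the treated group divided by that in the vehicle-treated control group.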

The mark [1] stands for this setting: T/C endpoint: mean survival time, dose: 200.0 mg/kg/injection, schedule: Q01DX009 (ip), vehicle: saline.
[2] abbreviates: T/C endpoint: mean survival time, dose: 400.0 mg/kg/injection, schedule: Q01DX009 (ip), vehicle: saline with Tween-80.
Setting [3] is: T/C endpoint: mean survival time, dose: 400.0 mg/kg/injection, schedule: Q04DX003 (ip), vehicle: saline with Tween-80.
The mark [4] stands for this setting: T/C endpoint: mean survival time, dose: 200.0 mg/kg/injection, schedule: Q04DX003 (ip), vehicle: saline with Tween-80.
Setting [5] is: T/C endpoint: mean survival time, dose: 200.0 mg/kg/injection, schedule: Q01DX001 (ip), vehicle: saline with Tween-80.
The mark [6] stands for this setting: T/C endpoint: mean survival time, dose: 400.0 mg/kg/injection, schedule: Q01DX001 (ip), vehicle: saline with Tween-80.
Where [7] appears, read: T/C endpoint: mean survival time, dose: 32.0 mg/kg/injection, schedule: Q01DX008 (oral), vehicle: saline.
[8] abbreviates: T/C endpoint: mean survival time, dose: 512.0 mg/kg/injection, schedule: Q04DX003 (oral), vehicle: saline.
Setting [9] is: T/C endpoint: mean survival time, dose: 100.0 mg/kg/injection, schedule: Q01DX009 (ip), vehicle: saline with Tween-80.
Where [10] appears, read: T/C endpoint: mean survival time, dose: 200.0 mg/kg/injection, schedule: Q01DX009 (ip), vehicle: saline with Tween-80.
[11] abbreviates: T/C endpoint: mean survival time, dose: 400.0 mg/kg/injection, schedule: Q04DX002 (ip), vehicle: saline with Tween-80.

The list shows only some results of the screen, not a fair sample: it is rich in T/C values a quarter to a half above the control, in often repeated tests (any T/C) and in doses without a T/C. Other doses and runs of a compound stand elsewhere. T/C: endpoint of the treated group in % of that of the vehicle group. Some doses have a count of surviving animals in place of a T/C: the source holds a T/C of zero for them, seemingly a mark for toxic or unscored doses. Some survivor counts are full or nearly so, which does not show that the dose was tolerated: the source hardly ever lists a survival T/C far under the control, and the zero likely stands for such cases as well. Survivors were counted at the toxicity check, usually on the fifth day, unless a day is given; later deaths do not show. Schedule codes are those of the source, read here as Q, the interval in days (D) or hours (H), X, the number of doses. Some entries were tested several times; the values are given in rising order. Where survival is the endpoint, this PubChem deposit counts one and a half times the control or more as active, and values a quarter to a half above the control carry no call in these data; other NCI protocols may use other cut-offs. Some T/C values are followed by the survivors on the day toxicity was checked, most often the fifth; where none is given, no animal had died by that day.

As for `Cc1cc(N)c(O)cc1C`, the survivor count is 3 of 6 under setting [1] and 2 of 6 (T/C endpoint: mean survival time, dose: 400.0 mg/kg/injection, schedule: Q01DX009 (ip), vehicle: saline).
Turning to `O=C1CSC(=S)N1`, under setting [2], the survivor count is 4 of 6.
For the compound `CC(C)COP(=O)(OCC(C)C)OCC(C)C`, under setting [3], the survivor count is 0 of 6.
Take `COc1ccc(OC)c2c1CCC(O)(C#N)C2` (centres undefined): the survivor count by setting is: (T/C endpoint: mean survival time, dose: 50.0 mg/kg/injection, schedule: Q01DX009 (ip), vehicle: water) 0 of 6; (T/C endpoint: mean survival time, dose: 100.0 mg/kg/injection, schedule: Q01DX009 (ip), vehicle: water) 0 of 6; (T/C endpoint: mean survival time, dose: 200.0 mg/kg/injection, schedule: Q01DX009 (ip), vehicle: water) 0 of 6.
`Cn1ccn(C2CCCCC2)c1=O`: the survivor count under setting [4] is given as 0 of 6 and the survivor count under setting [3] is listed as 0 of 6.
Consider `CCOC(CNCc1cccc(OC)c1)OCC`, for which, under “T/C endpoint: mean survival time, dose: 400.0 mg/kg/injection, schedule: Q01DX001 (ip), vehicle: saline”, the survivor count was 0 of 6.
Turning to `CC12CCC(=O)C(I)(I)C1=CCCC2=O` (centres undefined), the survivor count is given as 6 of 6 under setting [5] and 5 of 6 under setting [6].
Take `CC(=O)CC(=O)C1CCC(C(=O)CC(C)=O)CC1` (centres undefined): the survivor count under setting [3] is listed as 6 of 6.
For the compound `C=Cc1nnnn1C12CC3CC(CC(C3)C1)C2`, the survivor count under setting [5] was 0 of 6.
As to `CCCCCCCCCCCCCCCC(=O)OCC1OC(n2ccc(N)nc2=O)C(O)C1O` (centres undefined), the T/C by setting is: (T/C endpoint: mean survival time, dose: 6.25 mg/kg/injection, schedule: Q01DX001 (ip), vehicle: saline with Tween-80) 132 % of control; (T/C endpoint: mean survival time, dose: 12.5 mg/kg/injection, schedule: Q01DX001 (ip), vehicle: saline with Tween-80) 136 % of control; under setting [7], 126 % of control; (T/C endpoint: mean survival time, dose: 64.0 mg/kg/injection, schedule: Q01DX008 (oral), vehicle: saline) 138 % of control; (T/C endpoint: mean survival time, dose: 128.0 mg/kg/injection, schedule: Q01DX009 (oral), vehicle: saline) 135 % of control; (T/C endpoint: mean survival time, dose: 256.0 mg/kg/injection, schedule: Q01DX009 (oral), vehicle: saline) 145 % of control. For the same compound, the T/C runs as follows: (T/C endpoint: mean survival time, dose: 256.0 mg/kg/injection, schedule: Q04DX003 (oral), vehicle: saline) 129 % of control; under setting [8], 128 % of control; (T/C endpoint: mean survival time, dose: 1024.0 mg/kg/injection, schedule: Q04DX003 (oral), vehicle: saline) 140 % of control; (T/C endpoint: median survival time, dose: 125.0 mg/kg/injection, schedule: Q01DX001 (ip), vehicle: saline with Tween-80, evaluated on day 30) 348 % of control; (T/C endpoint: median survival time, dose: 125.0 mg/kg/injection, schedule: Q01DX001 (ip), vehicle: saline with Tween-80, evaluated on day 45) 548 % of control; (T/C endpoint: median survival time, dose: 125.0 mg/kg/injection, schedule: Q01DX001 (ip), vehicle: saline with Tween-80, evaluated on day 60) 328 and 421 % of control. Further, the T/C (T/C endpoint: median survival time, dose: 150.0 mg/kg/injection, schedule: Q01DX001 (ip), vehicle: saline with Tween-80, evaluated on day 30) was 348 % of control; the T/C (T/C endpoint: median survival time, dose: 150.0 mg/kg/injection, schedule: Q01DX001 (ip), vehicle: saline with Tween-80, evaluated on day 45) is 548 % of control [9 of 10 alive]; the T/C (T/C endpoint: median survival time, dose: 150.0 mg/kg/injection, schedule: Q01DX001 (ip), vehicle: saline with Tween-80, evaluated on day 60) is 337 and 463 % of control [8 of 9 alive].
Take `CCN1/C(=C/C=C/C=C\C=C\c2sc3ccc4ccccc4c3[n+]2CC)Sc2ccc3ccccc3c21`: the T/C is, setting by setting: (T/C endpoint: mean survival time, dose: 5.0 mg/kg/injection, schedule: Q01DX009 (ip), vehicle: saline with Tween-80) 125 and 126 % of control; (T/C endpoint: mean survival time, dose: 10.0 mg/kg/injection, schedule: Q01DX009 (ip), vehicle: saline with Tween-80) 128 % of control.
Take `CC(C)(C)C1=CC(C(C)(C)C)CCC1=O` (centres undefined): the survivor count (T/C endpoint: mean survival time, dose: 400.0 mg/kg/injection, schedule: Q01DX009 (ip), vehicle: acetone) was 2 of 6.
Take `CSc1nc(C)cc(N)n1`: the survivor count under setting [3] was 3 of 6.
As for `C/C=C(\C)C1(CCC)C(=O)NC(=S)NC1=O`, the survivor count (T/C endpoint: mean survival time, dose: 300.0 mg/kg/injection, schedule: Q01DX001 (ip), vehicle: other) is 1 of 6.
For the compound `CNC(=O)NNC(=O)c1ccc(Cl)cc1`, the survivor count was 4 of 6 under setting [9], 0 of 6 under setting [10] and 0 of 6 under setting [2].
With `O=C(O)c1cc2c(Cl)cccc2[nH]1`, the survivor count is recorded as 0 of 6 under setting [4] and 0 of 6 under setting [3].
For `COc1ccc(Cl)cc1Cn1ccnc1`, the survivor count is, setting by setting: (T/C endpoint: mean survival time, dose: 200.0 mg/kg/injection, schedule: Q01DX001 (ip), vehicle: saline) 0 of 6; under setting [1], 0 of 3 and 0 of 6; (T/C endpoint: mean survival time, dose: 200.0 mg/kg/injection, schedule: Q04DX003 (ip), vehicle: saline) 3 of 6; (T/C endpoint: mean survival time, dose: 400.0 mg/kg/injection, schedule: Q04DX002 (ip), vehicle: saline) 0 of 3 and 0 of 6.
`O=C(O)c1cnc(Cl)nc1Nc1ccccc1I`: the survivor count is on record as 6 of 6 (T/C endpoint: mean survival time, dose: 100.0 mg/kg/injection, schedule: Q01DX001 (ip), vehicle: saline with Tween-80) and 1 of 6 under setting [6].
As for `CC(=O)Nc1ccccc1C(C)=O`, the survivor count under setting [2] is reported as 5 of 6.
Consider `OC1CCC(CC2CCCCC2)CC1` (centres undefined), for which the survivor count under setting [2] is 0 of 6.
Regarding `N#CC(Cl)(C#N)c1ccc(C(Cl)(C#N)C#N)cc1`, the survivor count is listed as 3 of 6 under setting [10] and 0 of 6 under setting [2].
As to `O=C1CN(CCN2CC(=O)N(CN3CCOCC3)C(=O)C2)CC(=O)N1CN1CCOCC1`, the T/C was 138 % of control (T/C endpoint: median survival time, dose: 25.0 mg/kg/injection, schedule: Q01DX009 (ip), vehicle: water) and 136 % of control (T/C endpoint: median survival time, dose: 50.0 mg/kg/injection, schedule: Q01DX009 (ip), vehicle: water). Further, for the setting “T/C endpoint: median survival time, dose: 400.0 mg/kg/injection, schedule: Q01DX009 (ip), vehicle: water”, the survivor count is 0 of 6.
For `CCn1c(C)cc(=O)c2ccccc21`, the survivor count under setting [11] is 0 of 3.
As for `O=C1c2ccccc2C(=O)C1c1cc2ccccc2cn1`, the survivor count under setting [6] is reported as 6 of 6.
On to `Cc1cc2c(=O)c(C)c[nH]c2cc1Cl`, for which the survivor count (T/C endpoint: mean survival time, dose: 200.0 mg/kg/injection, schedule: Q01DX009 (ip), vehicle: Klucel (hydroxypropylcellulose) (HPC)) was 3 of 3.
With `O=S(=O)(F)c1ccc(S)c(Cl)c1Cl`, the survivor count runs as follows: (T/C endpoint: mean survival time, dose: 200.0 mg/kg/injection, schedule: Q04DX002 (ip), vehicle: saline with Tween-80) 0 of 3; under setting [11], 1 of 3.
Take `CC(=O)Nc1ccc(OCCOC(=O)Nc2ccc(Cl)cc2C)cc1`: the survivor count under setting [9] is recorded as 3 of 3.
For `Nc1ccn(C2OC(COP(=O)(O)O)C(O)C2O)c(=O)n1` (centres undefined), the T/C reads like this: (T/C endpoint: mean survival time, dose: 16.0 mg/kg/injection, schedule: Q01DX008 (oral), vehicle: saline) 131 % of control; under setting [7], 143 % of control; (T/C endpoint: mean survival time, dose: 32.0 mg/kg/injection, schedule: Q04DX003 (ip), vehicle: saline) 137 % of control; (T/C endpoint: mean survival time, dose: 64.0 mg/kg/injection, schedule: Q04DX003 (ip), vehicle: saline) 144 % of control; (T/C endpoint: mean survival time, dose: 128.0 mg/kg/injection, schedule: Q01DX009 (ip), vehicle: saline) 134 % of control; (T/C endpoint: mean survival time, dose: 128.0 mg/kg/injection, schedule: Q04DX003 (ip), vehicle: saline) 141 % of control. Also, the T/C reads like this: (T/C endpoint: mean survival time, dose: 256.0 mg/kg/injection, schedule: Q04DX003 (ip), vehicle: saline) 148 % of control; (T/C endpoint: mean survival time, dose: 512.0 mg/kg/injection, schedule: Q01DX001 (ip), vehicle: saline) 135 % of control; under setting [8], 145 % of control.
For the compound `N#C/C(=C1C=C/C(=N\O)C(Cl)=C\1)c1ccccc1`, under setting [2], the survivor count was 4 of 6.
Consider `O=C(NC/C=C/Br)Nc1cnc2ccccc2c1`, for which the survivor count (T/C endpoint: mean survival time, dose: 100.0 mg/kg/injection, schedule: Q04DX003 (ip), vehicle: saline with Tween-80) is reported as 6 of 6.
